Measured values from US9598399B2, “Compound suitable for detection of mitochondrial complex-1” (HAMAMATSU PHOTONICS K.K., priority 2012, dated 2017).
The name of at least one read-out is uncertain.

Test system: mitochondrial Complex-1
Test: In vitro autoradiography of rat brain slices and in vivo PET of living rat brain (background evaluation of [18F]BMS)
Source text: On the other hand, it has been reported that [^18F]BMS-747158-02 (2-tert-butyl-4-chloro-5-[4-(2-fluoroethoxymethyl)-benzyloxy]-2H-pyridazin-3-one, [^18F]BMS) serves as a PET probe that recognizes mitochondrial Complex-1 (hereinafter, may be referred to as “MC-1”), and this compound is used in a functional evaluation of the brain or the heart (Patent Literature 1 and Non-Patent Literature 1).

SMILES: CC(C)(C)n1ncc(OCc2ccc(COCCF)cc2)c(Cl)c1=O [[^18F]BMS, 2-tert-butyl-4-chloro-5-[4-(2-fluoroethoxymethyl)-benzyloxy]-2H-pyridazin-3-one]
- permeability through the blood-brain barrier: high permeability through the blood-brain barrier
